# In PubChem BioAssay AID493014 (National Center for Advancing Translational Sciences (NCATS), 2011):
# Some of the results follow. Further columns of the screen follow, without active or inactive calls. The list favours compounds with an active or inconclusive main result. Words in brackets tell the shape of the fitted curve; partial curves, single points and poor fits give uncertain potencies.
# Experiment: qHTS Assay to Find Inhibitors of Chronic Active B-Cell Receptor Signaling
# Settings: ABC-DLBCL IkBa-CBG/CBR reporter, luminescence ratio (green luciferase fused to IkBa over red control in TMD8 lymphoma cells), 4 h
# How it was run: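 TMD8 human ABC-DLBCL cells with doxycycline-inducible IκBα–green luciferase fusion and unfused red luciferase, in 0.5% FBS medium; compounds up to 46 uM, 4 h at 37C. Green/red luminescence ratio, filter-overlap corrected, fitted to concentration-response curves.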
# [1] = measured here: CBR red luminescence, cell number
# [2] = measured here: IkBa-CBG green luminescence
Compound,AC50 [1],AC50 [2]
N#Cc1nc(-c2ccc(Cl)cc2)oc1NCCc1ccccn1,"29.1 µM [rising, single point]",–
CCOC(=O)c1cc2c(=O)n3ccccc3nc2n(Cc2ccco2)c1=NC(=O)c1ccc(OC)cc1OC,"15.8 µM [falling, partial curve, poor fit]",–
Cc1cccc(C)c1OCC(=O)Nc1ccc(NC(=O)c2ccco2)cc1,"12.6 µM [rising, single point]",–
O=C(Nc1ccncc1)c1ccc(Cl)c(Cl)c1,"3.16 µM [rising, full curve, poor fit]",–
Cc1csc2c(SCC(=O)NNC(=O)C(Cl)Cl)ncnc12,"11.2 µM [rising, partial curve, poor fit]",–
O=C(Oc1ccc2c(c1)C(=O)c1ccccc1CO2)c1ccccc1,"0.92 µM [falling, partial curve, poor fit]",–
Fc1ccc2[nH]c3c(c2c1)CN(C(=S)NCc1ccccc1)CC3,"20 µM [falling, single point]",–
C/C(=N\NC(=O)COc1ccc(C)cc1C(C)C)c1cc2ccccc2o1,"20.6 µM [falling, single point]",–
Cc1c(/C=N/N=C2\CCC3C4CCc5cc(O)ccc5C4CCC23C)cnn1C (configuration not stated),"32.6 µM [rising, single point]",–
Cc1ccccc1NC(=O)Nc1ccccc1C(N)=O,"2.51 µM [falling, partial curve, poor fit]",–
N#C/C(=C/c1ccc(OCc2ccc(C(=O)O)cc2)cc1)C(=O)Nc1ccccc1,"35.5 µM [falling, partial curve, poor fit]",–
CCOC(=O)N1CCN(S(=O)(=O)c2ccc(F)c(C(=O)Nc3cc(C)cc(C)c3)c2)CC1,"20.6 µM [falling, partial curve]",–
C=CC[C@@H](Cc1ccc(F)cc1)C(=O)OC[C@H]1CCCN1C(=O)[C@@H](CC=C)CC(=O)N[C@H](CO)Cc1ccccc1,"20.6 µM [falling, single point]",–
COc1ccc(CN2CCN(C(=O)c3cc(C4CC4)nn3-c3ccccc3)CC2)cc1F,"29.1 µM [falling, single point]",–
O=C(N/N=C\c1ccc(O)c([N+](=O)[O-])c1)C1COc2ccccc2O1 (configuration not stated),"22.4 µM [falling, single point]","4.47 µM [rising, full curve, poor fit]"
CCCCOC(=O)c1ccc(NC(=O)c2ccccc2OC)cc1,"20.6 µM [falling, single point]",–
CC(C)(C)NC(=O)c1ccc2c(c1)N(CC(=O)N1CCCCC1)C(=O)C(C)(C)O2,"3.16 µM [falling, full curve, poor fit]",–
Cn1c(CCN2CCCCCC2)nc2cc(NC(=O)Nc3ccccc3)ccc21,"11.2 µM [falling, partial curve, poor fit]",–
CCOC(=O)c1c(-c2ccccc2)oc2cc(Br)c(O)c(C=O)c12,"10 µM [rising, partial curve]",–
O=C(Nc1ccc(S(=O)(=O)N2CCCC2)cc1)c1cccs1,"35.5 µM [falling, single point]",–
O=C(Nc1ccc2c(c1)OCCO2)C1c2ccccc2C(=O)N2CCc3ccccc3C12 (configuration not stated),"1.84 µM [rising, full curve, poor fit]",–

Compound,AC50 [1],AC50 [2]
O=C(NNC(=S)Nc1ccc(F)cc1)c1ccccc1OC(F)F,"16.4 µM [falling, partial curve, poor fit]",–
CCOC(=O)c1cc(C)sc1NC(=O)C(c1ccccc1)c1ccccc1,"5.8 µM [rising, full curve, poor fit]",–
CCc1ccc(NC(=O)CSc2nnc(-c3n[nH]c4ccccc34)n2-c2ccccc2)cc1,"23.1 µM [rising, single point]",–
COc1cc(C(C)=O)ccc1COc1ccc(C(=O)OCC(N)=O)cc1OC,"20.6 µM [rising, single point]",–
COc1ccc(CNc2ccccc2)cc1Br,"14.6 µM [rising, partial curve]",–
COc1cccc(C(=O)c2c[nH]c(C(=O)NCc3ccco3)c2)c1,"18.4 µM [falling, partial curve, poor fit]",–
O=C(c1ccc2c(c1)OCCO2)C1CCN(C(=O)Nc2ccccc2F)CC1,"22.4 µM [falling, single point]",–
CCc1ccc(CCC(=O)Nc2ncc(Cc3ccccc3Cl)s2)o1,"9.2 µM [rising, single point]","5.8 µM [falling, full curve]"
CC12CCC(=O)N1C(C(=O)Nc1nccs1)CS2 (configuration not stated),"29.1 µM [falling, single point]",–
Cc1n[nH]c(C)c1N=Nc1cc(Cl)ccc1Cl,"1.78 µM [rising, full curve, poor fit]",–
Cc1ccc(NC(=O)C2CCC(CNC(=O)[C@@H]3Cc4ccccc4CN3)CC2)c(C)c1 (some centres not stated),"4.47 µM [falling, partial curve]",–
CCCC(=O)Nc1cc(-c2nc3ncccc3o2)ccc1Cl,"2.82 µM [rising, partial curve, poor fit]",–
O=[N+]([O-])/C(C(Cl)=C(Cl)Cl)=C(/Sc1ccccc1)N1CCCCC1,"3.55 µM [falling, partial curve, poor fit]",–
Cn1c(C(=O)N2CCN(c3cccc(C(F)(F)F)c3)CC2)cc2sccc21,"22.4 µM [falling, single point]",–
CN(Cc1ccccc1)C(=O)CSc1nnc(-c2ccco2)n1-c1ccccc1,"25.1 µM [falling, single point]",–
CN(C)c1ccc2c(c1)Sc1cc(N(C)C)ccc1N2C(=O)c1ccccc1,"3.98 µM [rising, full curve, poor fit]",–
O=C(Oc1ccc(Br)cc1C(=S)N1CCOCC1)c1ccc([N+](=O)[O-])cc1[N+](=O)[O-],"11.2 µM [falling, partial curve]",–
O=C(Nc1cccc([N+](=O)[O-])c1)C1C2CCCCC21 (configuration not stated),"11.2 µM [rising, partial curve]",–
O=C(NN1C(=O)/C(=C/c2ccc(O)c([N+](=O)[O-])c2)SC1=S)c1ccccc1Cl,"35.5 µM [falling, single point]","15.8 µM [rising, single point]"
Oc1c(Cl)cc(Cl)cc1Sc1cc(Cl)cc(Cl)c1O,"14.6 µM [falling, single point]","23.1 µM [rising, single point]"
Cc1ccc(-c2noc(COc3ccccc3C)n2)cc1,"29.1 µM [rising, single point]",–

# Some of these compounds in order of SMILES length, rising.
Compound,AC50 [1],AC50 [2]
Cc1ccc(-c2noc(COc3ccccc3C)n2)cc1,"29.1 µM [rising, single point]",–
CCc1ccc(CCC(=O)Nc2ncc(Cc3ccccc3Cl)s2)o1,"9.2 µM [rising, single point]","5.8 µM [falling, full curve]"
CN(C)c1ccc2c(c1)Sc1cc(N(C)C)ccc1N2C(=O)c1ccccc1,"3.98 µM [rising, full curve, poor fit]",–
O=C(Oc1ccc(Br)cc1C(=S)N1CCOCC1)c1ccc([N+](=O)[O-])cc1[N+](=O)[O-],"11.2 µM [falling, partial curve]",–

# (continued)

Compound,AC50 [1],AC50 [2]
COC(=O)C(C(=O)Nc1ccccc1C)C1CCCC1 (configuration not stated),"12.6 µM [rising, single point]",–
COc1ccccc1C1CCN(C(=O)c2ccc(C(C)(C)C)cc2)CC1,"10 µM [falling, single point]",–
O=C(O)c1ccc2c(=O)n3c(nc2c1)/C(=C/c1cccc(Cl)c1Cl)CC3,"35.5 µM [rising, single point]",–
O=C1[C@H]2[C@@H](C(=O)N1c1cccc3ccccc13)C1(C(=O)c3ccccc3C1=O)N1CCC[C@@H]21,"12.6 µM [falling, single point]",–
S=C(NCc1ccco1)Nc1ccc(Br)cc1Cl,"31.6 µM [falling, single point]",–
c1ccc(Oc2cc(-n3cncn3)ncn2)cc1,"20.6 µM [rising, single point]",–
CCN(CC)C(=O)COc1ccc(-c2nnc(Nc3ccc(OC)c(C(=O)NC)c3)c3ccccc23)cc1,"5.62 µM [falling, partial curve, poor fit]",–
COc1ccc(OC)c(N/C=C/C(=O)c2ccccc2)c1,"14.1 µM [falling, partial curve, poor fit]",–
CCOC(=O)c1ccc(N=Cc2nc(-c3ccccc3)oc2OC(C)=O)cc1,"1.3 µM [falling, partial curve, poor fit]",–
Cc1cccc(NC(=O)NC(=S)NC(=O)c2ccccc2)c1,"29.1 µM [falling, single point]",–
NC(=O)c1cc2ccccc2o/c1=N\NC(=O)c1ccccc1O,"2.82 µM [falling, single point]",–
O=c1c(O)c(-c2ccccc2)oc2cc(O)cc(O)c12,"18.4 µM [falling, partial curve, poor fit]",–
CCc1c(C)nc2ccc(Br)cc2c1Cl,"0.631 µM [rising, full curve, poor fit]",–
Cc1nc(-c2cccc(NC(=O)c3ccc(-n4nccc4C)cc3)c2)cs1,"14.6 µM [falling, partial curve, poor fit]",–
Cc1ccnn1CCC(=O)N1CCCC(N2CCN(c3cccc(Cl)c3)CC2)C1 (configuration not stated),"6.31 µM [rising, single point]",–
Cc1ccccc1-n1c(C)cc(/C=C(\C#N)C(=O)NCC2CCCO2)c1C (configuration not stated),"29.1 µM [rising, single point]",–
COc1cc(OC)cc(C(=O)N2CCN(c3ccccc3F)CC2)c1,"0.116 µM [falling, full curve, poor fit]",–
Cc1noc(C)c1COc1ccc(C(=O)NCc2cccs2)cc1,"29.1 µM [rising, single point]","20.6 µM [falling, partial curve]"
CCCOc1cc(C)c(S(=O)(=O)NC2CC(C)(C)NC(C)(C)C2)cc1C,"1.64 µM [rising, partial curve, poor fit]",–
COc1cccc(CN2CCN(Cc3ccc(OC)c(OC)c3)CC2CCO)c1 (configuration not stated),"0.794 µM [falling, full curve, poor fit]",–
